The results in this text go back to paper PMC11570497 (Nature Plants, 2024).

The nature of the data set: peptide made by a vendor. Particulars: whole synthesis.

Strings that start with PEPTIDE1 are HELM notation: dots part the residues, brackets hold end groups and non-standard residues.

As to “PEPTIDE1{[Dabcyl].V.K.W.F.N.N.A.K.[Edans]}$$$$V2.0”, the “purity (crude or final not stated)” value was 95.7%.
